{"source": "paper PMC9800617", "about": "“Pharmacokinetics/pharmacodynamics of polymyxin B in patients with bloodstream infection caused by carbapenem-resistant Klebsiella pneumoniae” (Frontiers in Pharmacology, 2022)", "tested_on": "carbapenem-resistant K. pneumoniae", "test": "Clinical PK/PD index (AUC/MIC) in BSI patients", "format": "in vivo, human", "conditions": "eight evaluated patients, lowest value of cohort", "note": "Bridge positions count the residues as written; N and C are the ends. Square brackets hold non-standard residues; d marks the D form. Peptide text beside a SMILES is read from it. * marks the point of attachment. X1 = CC[C@H](C)CCCCC(=O)*; Dab = NCC[C@H](N)C(=O)O"}
{"smiles": "CC[C@H](C)CCCCC(=O)N[C@@H](CCN)C(=O)N[C@H](C(=O)N[C@@H](CCN)C(=O)N[C@H]1CCNC(=O)[C@H]([C@@H](C)O)NC(=O)[C@H](CCN)NC(=O)[C@H](CCN)NC(=O)[C@H](CC(C)C)NC(=O)[C@@H](Cc2ccccc2)NC(=O)[C@H](CCN)NC1=O)[C@@H](C)O", "note": "[polymyxin B] (X1-[Dab]T[Dab][Dab][Dab][dF]L[Dab][Dab]T; lactam 4-C)", "values": [{"measurement": "AUCss,24h/MIC achieved", "setting": "CRKP MIC ≤1 mg/L, 1.25 mg/kg 12-hourly", "value": "≥ 54.4"}, {"measurement": "fAUCss,24h/MIC achieved", "setting": "unbound fraction 0.42", "value": "≥ 22.8"}]}
